# Assay results as given in PubChem BioAssay AID1508600 (Functional Genomics Laboratory (NCATS/FGL), 2020).
# The campaign covered roughly 53,000 sequences. About 3,700 (7%) were called active.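 The calls were made as follows: active = gene knockdowns whose robust z-score for IL-1 alpha signal is at least 2 or at most -2, so actives lie on both sides; inactive = the rest.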 The list shows a part of the results.
# Test: Components of the Cytosolic LPS Sensing Pathway: Gene Identification via Genome-wide siRNA Screen;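 also: robust z of the log signal after scaling to non-targeting control siRNA wells of the plate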
# Settings: RAW264.7 macrophages, IL-1a HTRF, actives lie on both sides, screened at 100 nM (by protocol), cells primed 5 h with Pam3CSK4 first
# How it was run: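 Read-out: IL-1a HTRF on supernatant, divided by plate negative-control median ×100, log-transformed and converted to robust z-score. Cells were RAW264.7 given 100 nM siRNA, Pam3CSK4-primed 5 hours, then LipidA-transfected 24 hour.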
row,Sequence,z-score
1,GCAACUGGUGAUAAGGUGUTT against Flywch1,inactive: 0.486
2,GAACGACACAAGGCCUUCATT against Olfr585,inactive: 0.9
3,GGGACUUCAACAGAUAUGUTT against Kdm4b,inactive: -1.92
4,GGCAAUCUACUCAUUGUUGTT against Olfr1239,inactive: -0.719
5,GGAGAUGAAGAGGUUGGUUTT against Olig3,inactive: -0.569
6,GGUGGUAAAAGAUACGACCTT against Atp6v1e1,inactive: 0.0668
7,GGCAUUCUGAAAACAACUCTT against Hvcn1,active: 2.02
8,GCCGAUGUCAGUGGUUAAATT against Bmx,inactive: 0.198
9,GCAUAGUUCAGAUUUACAGTT against Zfp27,inactive: -0.745
10,CCAUAGACUUCAUUGUACATT against Lipf,inactive: -0.434
11,GGAUACAGAAGGUUUUCUUTT against Abcd4,inactive: -0.137
12,CCACUCAAUCCUUAGCAAGTT against Abi2,inactive: -1.31
13,GCUCCACCAAACUAAUGCGTT against Polrmt,inactive: 0.816
14,GGCCAAAGUCCACACAAGUTT against Naaa,active: 2.12
15,CCCAGCUCAGGUUUCUAUGTT against Dact2,inactive: 0.0333
16,GGCAGAGGAAAUCAUGAAGTT against Clpp,inactive: -1.05
17,GGUAUAGCUACCAUUUUUCTT against Ggct,inactive: -1.05
18,GGAACAUUGACCAGAUAGUTT against Ankrd44,inactive: -1.44
19,GGUCAACCUCAAAGUCUUUTT against Il17a,inactive: 0.581
20,CGAUGGGUUGUAUGAGACCTT against Fut10,inactive: -0.231
21,GCAGUAUAAGAAUUUCAUGTT against Thada,inactive: -0.325
22,GGGACACAACCACAAUAACTT against Susd3,inactive: -0.876
23,GGACGCGGAGAAGAAAGUUTT against Ybx3,inactive: -0.425

row,Sequence,z-score
1,GCUUUCAUAGAAUCUUGGCTT against Rnf24,inactive: 0.709
2,GCAAUGAACCCUAGAAUUATT against Col4a1,inactive: 0.36
3,GGCUUGGUAGCCAUCCUCATT against Lrrc27,inactive: 1.1
4,GGGUAUUGGUUUUAGAGCATT against Emd,inactive: 0.37
5,CCGGGUAGUGAGUAAGCUUTT against Neu2,active: -3.51
6,GGAUGGCAGCUUUGACCUUTT against Cdc42ep2,inactive: 0.566
7,GCCUGGCUUGUAACUUCACTT against 1700034H15Rik,inactive: 0.0703
8,GCCUGUAUCAAUAAUUCAATT against Asprv1,inactive: 0.178
9,GGAAGUGAUUGCCAUCAAATT against Sh3bp4,inactive: -0.984
10,GCUGCCAUUUAUCAACCUUTT against Esrp1,inactive: 0.981
11,GCGCAGAACCCAGAUGAAGTT against Necap2,inactive: 0.836
12,GGAGAUCCGUCGAAUCAACTT against Anxa4,active: 3.19
13,GCUUUCUCUUAUGGAUCUATT against Olfr700,inactive: 0.966
14,GGGCCUGUGAAACUUGUGCTT against Mrps16,inactive: -0.385
15,GGGACUGAAAUCUAUUUUGTT against Zfp217,active: 2.16
16,CCUGACAAGACAUUUCAAATT against Dusp22,inactive: -0.987
17,GGGAAAUUUGUCCUGUUAATT against Hibadh,inactive: -0.3
18,GGAGAAGUCAUUGUUUUUGTT against Klhdc2,inactive: -0.493
19,GCCAUACCCUCCAAUAAAGTT against Cfap410,inactive: -1.47
20,GCUCAGUAUGUUUGGGAGUTT against 5330416C01Rik,inactive: 1.98
21,GCAGGUUUAUGAAAGCUUUTT against Rictor,inactive: -1.33
22,GGACCUAGUGCGUUCCAAATT against H1f7,active: 2.92
23,GGACCGAUAUAACCUACCCTT against Rps4x,inactive: 0.0626

# Copied from the entries so far (5 entries):
row,Sequence,z-score
10,GCUGCCAUUUAUCAACCUUTT against Esrp1,inactive: 0.981
11,GCGCAGAACCCAGAUGAAGTT against Necap2,inactive: 0.836
12,GGAGAUCCGUCGAAUCAACTT against Anxa4,active: 3.19
13,GCUUUCUCUUAUGGAUCUATT against Olfr700,inactive: 0.966
14,GGGCCUGUGAAACUUGUGCTT against Mrps16,inactive: -0.385

# (cont.)

row,Sequence,z-score
1,GGCACGAUAUUAUUUUCAGTT against Lrfn5,inactive: -0.229
2,GGCUUUUUUGCCAUUGCUATT against Wnt9b,inactive: 0.19
3,GGAAACAGCUGCUAAGUGCTT against Hsd17b11,inactive: -1.38
4,GGCAGCGAUUGACAAAAUGTT against Eefsec,inactive: -0.756
5,GCUAUCAUAUGUGCCCUAATT against Mrgprx1,inactive: -0.702
6,GGUAUGGGAGAUGACUCUATT against Fastkd5,inactive: 0.0645
7,CCACCAUCAUGAGAGAGGATT against Olfr350,inactive: 0.00462
8,GGUGCUCUGCCAAACUGUUTT against Mmaa,inactive: 0.518
9,CCAUGCAACUUUAAAAAGCTT against Tmem69,inactive: -0.738
10,GUCUCUUUGCCCUGUGCUATT against Vmn1r239-ps,inactive: 0.0206
11,GGGUACCUACAUAGACAAGTT against Rps11,inactive: 0.0651
12,GGAACUACUACUCACCUAUTT against Trhr,inactive: -0.776
13,GGCCAAGUGAUAGAGUUCATT against Crygd,inactive: 1.22
14,GCCCUUGAGUGAAAGAGAUTT against Clspn,inactive: -1.91
15,GCUUAAUCAGCUAAUCAAUTT against Sult1c2,inactive: 0.699
16,GCAUACCAUCUUAUUUUGGTT against Sptlc1,inactive: 0.159
17,GGGAGCAACUGUGUCAAAUTT against Tspan10,inactive: 1.06
18,GGCGGACAUCACUUAUGAGTT against Gopc,inactive: -0.862
19,GGCAUCCAAAAUUUUCAACTT against Nxph3,inactive: -0.29
20,CUUUAGACUUCAUGCUCUCTT against Olfr128,inactive: 0.909
21,CCUACGAGGAUUAUGUUGATT against Myl6,inactive: -0.736
22,GGAUUGACUUCAUGGAUAUTT against Btc,inactive: 0.492
